The supplement of paper PMC3334620
In all, about 33,000 sequences were measured (“E-score (-0.5 to 0.5)”: median about -0.016, highest 2% from about 0.3 on). The list shows a part of the results.

Target: T1, Yer184c (UniProt P39961)
T1 sequence: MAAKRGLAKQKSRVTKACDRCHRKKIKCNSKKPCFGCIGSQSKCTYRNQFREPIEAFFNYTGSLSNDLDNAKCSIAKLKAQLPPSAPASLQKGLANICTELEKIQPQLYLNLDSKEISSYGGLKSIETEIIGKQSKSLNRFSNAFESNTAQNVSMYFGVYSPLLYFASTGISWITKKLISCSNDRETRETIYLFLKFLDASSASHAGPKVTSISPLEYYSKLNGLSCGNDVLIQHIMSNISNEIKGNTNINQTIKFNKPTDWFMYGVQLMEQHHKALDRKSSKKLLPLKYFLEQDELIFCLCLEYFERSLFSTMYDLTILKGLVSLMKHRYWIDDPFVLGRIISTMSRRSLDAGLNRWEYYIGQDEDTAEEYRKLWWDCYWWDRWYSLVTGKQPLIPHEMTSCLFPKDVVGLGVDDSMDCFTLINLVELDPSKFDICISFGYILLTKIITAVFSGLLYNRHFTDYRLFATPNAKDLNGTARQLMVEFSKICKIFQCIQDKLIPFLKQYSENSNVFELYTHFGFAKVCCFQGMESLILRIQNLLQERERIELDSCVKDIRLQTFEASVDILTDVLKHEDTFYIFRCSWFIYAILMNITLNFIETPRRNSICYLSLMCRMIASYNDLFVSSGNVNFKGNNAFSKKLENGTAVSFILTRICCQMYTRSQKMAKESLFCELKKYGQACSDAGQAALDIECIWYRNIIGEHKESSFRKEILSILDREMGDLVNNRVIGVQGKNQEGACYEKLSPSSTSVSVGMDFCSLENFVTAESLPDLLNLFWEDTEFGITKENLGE
Assay: PBM E-score (8-mer binding enrichment) (E-score (-0.5 to 0.5)); higher = stronger / more preferred TF binding
Details: protein concentration: 100 nM; construct: GST-full length
Method in brief: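 Each ungapped eight-base word and its reverse complement, pooled, received an E-score from the Universal PBM Analysis Suite. Underlying scans, normalised with masliner, recorded fluorescent anti-GST bound to GST-tagged yeast transcription factors. These were applied at about 100-200 nM to universal all-10-mer Agilent arrays double-stranded by primer extension.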

Row | Sequence | PBM E-score
1 | ACATTCCT | -0.139
2 | AAGAACCG | 0.223
3 | CATCTCTA | -0.0291
4 | GCGGTTCA | -0.0177
5 | GCAACCTA | -0.123
6 | GACCGCAA | 0.0311
7 | AGCCGAAC | 0.279
8 | CCCCCAAG | -0.226
9 | CCAGCACG | -0.132
10 | GCCAAAAA | 0.234
11 | ATAAACAC | 0.0583
12 | CGCCGATC | 0.129
13 | TGGGACAA | -0.139
14 | ACGAACAG | 0.044
15 | AACTACAT | 0.0324
16 | CCTCCAGG | -0.37
17 | ACTTCTAT | -0.0344
18 | CACAAACC | -0.15
19 | ATGCACGA | -0.192
20 | CTCAGGAC | -0.0106
21 | ACATGGAG | -0.287
22 | GAGCTCCA | -0.133
23 | ATAATTAA | 0.323
24 | AGCATCAC | -0.207
25 | ACAAGTGT | -0.092

Row | Sequence | PBM E-score
26 | AGCAGGGC | -0.269
27 | ACGATCTG | -0.225
28 | GCACCGCC | -0.183
29 | GCATGAAA | 0.0975
30 | CGCCCTGA | -0.0305
31 | CTGGTATC | 0.00658
32 | AAGACATT | -0.147
33 | GATCGGTA | 0.283
34 | CCTTGGAA | 0.00859
35 | GTGGCGGA | -0.15
36 | AGGATACA | -0.0342
37 | AAACTCTT | -0.111
38 | CTAGTGCC | -0.019
39 | GACAAGGA | -0.0111
40 | AGAAATCC | 0.0506
41 | AGGGATTA | -0.104
42 | AATCCGTC | 0.177
43 | GAACGGGA | 0.109
44 | ACCCAAGC | -0.186
45 | CGAAGAAG | 0.159
46 | CCTGAGCA | 0.0403
47 | ACTACCAC | -0.14
48 | ACTACCTG | -0.124
49 | AGTCTCAA | -0.165
50 | GAGTGGCA | -0.153

Row | Sequence | PBM E-score
51 | GTACACAC | -0.0358
52 | CAGCCACG | -0.029
53 | ACAAGGCA | -0.0983
54 | TGACTAAA | 0.0586
55 | CTAAATAC | -0.0252
56 | CTTGATGA | 0.154
57 | TGGGCCCA | -0.172
58 | TAACCAAA | 0.00703
59 | AAAAGGCT | -0.059
60 | CCGACATA | 0.0406
61 | ACTAGGTA | 0.074
62 | ATTGAGAA | 0.147
63 | ACCGTCGA | -0.142
64 | GGCGTAAA | 0.163
65 | CGTCGAAG | -0.0753
66 | ACCTGTCG | -0.119
67 | CGTCCATC | 0.0269
68 | CGAAGATC | -0.0716
69 | AGTGGTAA | -0.0307
70 | ACCCGAAA | 0.169
71 | ACGAGGTC | -0.127
72 | GGGTATTA | 0.0826
73 | CATAGAGG | -0.0335
74 | GCGGGTAA | -0.0471
75 | AGCATTAT | -0.0597

Laid out differently: entries from further up.
Row,Sequence,PBM E-score
58,TAACCAAA,0.00703
59,AAAAGGCT,-0.059
60,CCGACATA,0.0406
61,ACTAGGTA,0.074
62,ATTGAGAA,0.147

The listing continues.

Row | Sequence | PBM E-score
76 | GGCCGTAC | 0.145
77 | CGTCATGA | -0.0317
78 | ATACCGAG | 0.117
79 | CTCATTTC | 0.0515
80 | AATTAGGC | 0.115
81 | CGTGAACA | 0.141
82 | ATATGTGC | -0.0304
83 | ATTTGCCC | 0.0315
84 | ACTGGTAC | -0.00757
85 | CCTAATTA | -0.0854
86 | CCCCCATC | -0.296
87 | GTCCTTAA | 0.0174
88 | AATCCGGC | 0.3
89 | TAGGTCAA | -0.0748
90 | CGTAATAG | 0.0193
91 | ATAGTCTA | -0.134
92 | TCCGTCCA | 0.0919
93 | CCACCTGC | -0.134
94 | CAGTCATC | -0.248
95 | CCTTTCTC | -0.109
96 | CGTACCGA | 0.122
97 | ACAAACAA | 0.156
98 | CTGCATCC | -0.0447
99 | ATATATTC | 0.319
100 | GTTTTGCA | 0.134

Row | Sequence | PBM E-score
101 | AGTTTCTG | 0.109
102 | GAGCTTCA | 0.0556
103 | CGAACGAA | 0.111
104 | AGCTCTCA | -0.0398
105 | GTTTAGTA | 0.129
106 | AAGCTCTG | -0.323
107 | CTAAGCAA | -0.155
108 | ACGAATTG | -0.0627
109 | GATCGAAC | 0.0679
110 | CAAGTTTA | 0.0245
111 | GCGGTTAC | 0.119
112 | CCCAGTGC | -0.113
113 | GTAGTGGA | 0.177
114 | ACCACTCG | 0.161
115 | CCCTCCTC | -0.294
116 | AGTCTTTG | -0.0401
117 | ATAGCAGC | -0.169
118 | AAATAAGT | 0.0237
119 | ACCCTAGC | -0.109
120 | ATACATAC | -0.0825
121 | ACGGTTAG | -0.121
122 | GCTGAGGA | -0.0891
123 | TAACAGCA | 0.0901
124 | AATCCGAG | 0.114
125 | AGGAATGC | -0.146

Row | Sequence | PBM E-score
126 | AACAGCAC | 0.221
127 | TCTTTCAA | 0.0831
128 | GGCCTTGA | -0.0372
129 | CTTTGACC | 0.139
130 | ACGTACCA | -0.159
131 | AATCTCTC | 0.0453
132 | GCATCGGA | 0.307
133 | CGGATTCA | 0.0382
134 | GACATGAA | -0.00105
135 | CGCTTTCA | 0.092
136 | CGCGCACG | 0.0243
137 | AATACTCG | 0.0254
138 | CTACAAGA | -0.0493
139 | CGTCTGTC | 0.00557
140 | CTCTAACC | -0.181
141 | CAGCTCCG | 0.222
142 | AACTATAA | 0.0405
143 | TAAGCCTA | 0.00373
144 | CTTCTAAC | -0.0757
145 | CGTAGCAG | -0.101
146 | GGACTTCA | -0.158
147 | ACTTGGCA | -0.165
148 | CGACGCAC | -0.0313
149 | GATGGACC | -0.0249
150 | AGCCTATG | -0.201

Exported as a markdown table: entries from further up

| Row | Sequence | PBM E-score |
| --- | --- | --- |
| 138 | CTACAAGA | -0.0493 |
| 139 | CGTCTGTC | 0.00557 |

Next entries follow:

Row | Sequence | PBM E-score
151 | GTTCTCAA | 0.0804
152 | ACTACAAG | -0.0232
153 | ACTTCGCG | 0.0108
154 | CTCAGGTC | -0.0546
155 | GCCACCAC | -0.215
156 | CTCAACCC | -0.164
157 | CACTTGCC | -0.14
158 | CATGACCC | -0.322
159 | ATTTATGG | 0.0272
160 | CTGCCTAA | -0.11
161 | GGAACAGA | 0.134
162 | AAGCGTGC | -0.0432
163 | TCTTTGCA | 0.116
164 | CATGTAGC | -0.241
165 | CCGCAGAA | 0.142
166 | ATGACCCG | -0.197
167 | GCATACGA | -0.0622
168 | CGTTTTCC | 0.0721
169 | CCTCGAAA | 0.165
170 | AAGGAGTA | -0.186
171 | CGAACTTA | 0.161
172 | CGACGTGC | -0.184
